Results are given in words; binding and its absence hold for the method and conditions named. For some of these results: In cells and extracts the contact can be indirect. Some entries that bind do so weakly or less than the wild type. Each block holds one substance with its values, some of them ahead of it.
Assays:
Myc-ITF2B [1] = biological target: Myc-ITF2B (UniProt P15884); assay: pull-down; purified tagged proteins (affinity gels, from HEK293T) mixed in a test tube; binding buffer 25 mM HEPES pH 7.4, 150 mM KCl, 12.5 mM MgCl2, 10% glycerol, 1% NP-40, 0.1% BSA, 5 mM DTT, 1 h at 4 °C; pulled-down proteins immunoblotted; both purified
Myc-ITF2B [2] = biological target: Myc-ITF2B (UniProt P15884); assay: co-IP; competition: ITF2B co-transfected in HEK293T with two partners, the plasmid of one of them increasing (1, 3 μg); immunoprecipitation-immunoblotting
pcITF2 = pcITF2 (UniProt P15884); assay: as above
p65 (vector of Fig. 3A) = p65 (vector of Fig. 3A) (UniProt Q04206); assay: co-IP; cells transfected with p65 vector, ITF2 vector or both; lysate precipitated with p65 antibody or control IgG, immunoblot
Flag-p65 = Flag-p65 (UniProt Q04206); assay: pull-down; purified tagged proteins (affinity gels, from HEK293T) mixed in a test tube; binding buffer 25 mM HEPES pH 7.4, 150 mM KCl, 12.5 mM MgCl2, 10% glycerol, 1% NP-40, 0.1% BSA, 5 mM DTT, 1 h at 4 °C; pulled-down proteins immunoblotted; both purified
F/S-ITF2B = F/S-ITF2B (UniProt P15884); assay: co-IP; tagged proteins co-expressed in HEK293T; lysate in 50 mM Tris-HCl pH 7.5, 150 mM NaCl, 1 mM EDTA, 1% Triton X-100, 5% glycerol; precipitated by the tag (α-Myc or α-Flag), immunoblot of the other tag
endogenous ITF2 [3] = biological target: endogenous ITF2 (UniProt P15884); assay: co-IP; endogenous proteins; with or without TNF stimulation (Supplementary Fig. S10A-E)
endogenous ITF2 [4] = biological target: endogenous ITF2 (UniProt P15884); assay: proximity ligation; Duolink fluorescent reagents, as specified by the manufacturer (Supplementary Fig. S10)

By UniProt entry, the sequences of proteins in these tests, tags left out.
UniProt P15884: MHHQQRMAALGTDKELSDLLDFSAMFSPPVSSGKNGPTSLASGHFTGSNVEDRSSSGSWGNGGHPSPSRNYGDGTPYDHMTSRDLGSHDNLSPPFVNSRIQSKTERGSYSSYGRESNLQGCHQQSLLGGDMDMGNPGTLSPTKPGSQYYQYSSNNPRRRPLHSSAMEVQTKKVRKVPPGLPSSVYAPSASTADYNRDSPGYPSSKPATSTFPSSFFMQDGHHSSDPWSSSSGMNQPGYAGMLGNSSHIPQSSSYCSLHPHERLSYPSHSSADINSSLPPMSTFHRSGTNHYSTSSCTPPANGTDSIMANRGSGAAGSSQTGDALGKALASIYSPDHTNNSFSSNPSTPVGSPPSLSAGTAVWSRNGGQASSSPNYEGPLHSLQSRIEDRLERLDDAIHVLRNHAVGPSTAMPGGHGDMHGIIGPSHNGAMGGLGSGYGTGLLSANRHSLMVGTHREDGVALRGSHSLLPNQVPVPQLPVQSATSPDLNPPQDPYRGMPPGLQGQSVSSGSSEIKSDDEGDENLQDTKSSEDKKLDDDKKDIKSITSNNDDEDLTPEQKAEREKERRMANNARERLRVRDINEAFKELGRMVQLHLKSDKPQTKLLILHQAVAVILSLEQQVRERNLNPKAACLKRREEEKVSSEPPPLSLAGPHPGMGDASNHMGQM
UniProt Q04206: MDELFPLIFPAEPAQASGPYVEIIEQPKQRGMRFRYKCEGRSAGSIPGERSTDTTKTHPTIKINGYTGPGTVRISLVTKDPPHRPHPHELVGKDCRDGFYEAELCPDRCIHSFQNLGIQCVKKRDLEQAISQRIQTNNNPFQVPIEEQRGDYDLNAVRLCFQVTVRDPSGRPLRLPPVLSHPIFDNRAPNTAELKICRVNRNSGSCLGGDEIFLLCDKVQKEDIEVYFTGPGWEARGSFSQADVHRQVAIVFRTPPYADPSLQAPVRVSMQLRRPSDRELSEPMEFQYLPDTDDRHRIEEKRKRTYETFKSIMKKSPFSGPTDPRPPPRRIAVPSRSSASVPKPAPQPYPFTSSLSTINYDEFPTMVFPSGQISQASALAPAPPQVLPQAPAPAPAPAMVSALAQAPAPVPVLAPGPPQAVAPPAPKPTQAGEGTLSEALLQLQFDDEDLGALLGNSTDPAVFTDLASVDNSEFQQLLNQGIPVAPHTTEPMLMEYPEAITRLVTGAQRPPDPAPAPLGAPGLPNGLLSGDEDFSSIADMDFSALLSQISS
UniProt O60260: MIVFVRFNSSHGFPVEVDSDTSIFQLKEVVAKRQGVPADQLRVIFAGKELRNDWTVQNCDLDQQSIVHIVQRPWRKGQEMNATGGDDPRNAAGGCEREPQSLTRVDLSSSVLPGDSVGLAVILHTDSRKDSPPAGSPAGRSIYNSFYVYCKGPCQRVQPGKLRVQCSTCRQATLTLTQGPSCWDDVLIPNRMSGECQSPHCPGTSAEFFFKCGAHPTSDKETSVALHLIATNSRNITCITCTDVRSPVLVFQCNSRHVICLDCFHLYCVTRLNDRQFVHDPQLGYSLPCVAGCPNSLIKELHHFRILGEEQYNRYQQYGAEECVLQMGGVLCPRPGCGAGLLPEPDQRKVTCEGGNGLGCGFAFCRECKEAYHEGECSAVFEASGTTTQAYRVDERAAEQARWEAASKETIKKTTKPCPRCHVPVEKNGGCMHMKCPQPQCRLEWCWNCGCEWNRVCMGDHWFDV
UniProt P35222: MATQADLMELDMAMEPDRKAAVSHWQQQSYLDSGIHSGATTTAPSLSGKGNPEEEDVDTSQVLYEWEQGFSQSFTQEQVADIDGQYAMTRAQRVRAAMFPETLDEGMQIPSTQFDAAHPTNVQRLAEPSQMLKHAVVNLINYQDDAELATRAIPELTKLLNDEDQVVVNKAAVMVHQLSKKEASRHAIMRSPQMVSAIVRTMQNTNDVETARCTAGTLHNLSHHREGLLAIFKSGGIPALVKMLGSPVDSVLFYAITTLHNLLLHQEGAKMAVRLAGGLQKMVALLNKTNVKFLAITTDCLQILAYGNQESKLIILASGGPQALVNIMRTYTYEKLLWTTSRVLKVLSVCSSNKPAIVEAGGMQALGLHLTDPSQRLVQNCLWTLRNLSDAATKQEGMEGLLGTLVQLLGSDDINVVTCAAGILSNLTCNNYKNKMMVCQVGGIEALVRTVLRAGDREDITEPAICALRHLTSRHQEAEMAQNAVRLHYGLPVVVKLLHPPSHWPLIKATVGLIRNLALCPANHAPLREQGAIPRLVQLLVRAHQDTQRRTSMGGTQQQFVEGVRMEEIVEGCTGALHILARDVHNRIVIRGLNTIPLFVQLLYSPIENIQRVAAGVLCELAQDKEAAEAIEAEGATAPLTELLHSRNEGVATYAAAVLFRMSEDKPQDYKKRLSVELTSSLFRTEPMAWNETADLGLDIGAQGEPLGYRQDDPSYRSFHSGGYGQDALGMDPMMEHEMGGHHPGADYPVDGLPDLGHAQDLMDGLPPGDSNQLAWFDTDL

Substance: Flag-p65 (from UniProt Q04206 1-551)
- binding (Myc-ITF2B [2]): binds
- binding (pcITF2): binds

Substance: ITF2 (vector of Fig. 3A) (from UniProt P15884 1-667)
- binding (p65 (vector of Fig. 3A)): binds

Substance: Myc-ITF2B (from UniProt P15884 1-667)
- binding (Flag-p65): binds

Substance: endogenous Parkin (from UniProt O60260 1-465) (enzyme)
- binding (endogenous ITF2 [3]): binds
- binding (endogenous ITF2 [4]): binds

Substance: p-p65 (from UniProt Q04206 1-551)
- binding (endogenous ITF2 [3]): binds

Results, then the substance that gave them:

- binding (Myc-ITF2B [1]): binds
Substance: F/S-Parkin (from UniProt O60260 1-465) (enzyme)

- binding (Myc-ITF2B [2]): binds
Substance: HA-β-catenin (from UniProt P35222 1-781)

- binding (pcITF2): binds
- binding (F/S-ITF2B): binds
Substance: Myc-PRKN (from UniProt O60260 1-465) (enzyme)

- binding (endogenous ITF2 [3]): binds
- binding (endogenous ITF2 [4]): binds
Substance: endogenous p65 (from UniProt Q04206 1-551)

Source: PMC10130090
